# Laboratory results from the supplement of paper PMC6411743.
# Amino acid sequences for entries named in this document (tags omitted). A change or cut given only in a name is not applied to a line headed by its entry.
# UniProt Q8TCA0: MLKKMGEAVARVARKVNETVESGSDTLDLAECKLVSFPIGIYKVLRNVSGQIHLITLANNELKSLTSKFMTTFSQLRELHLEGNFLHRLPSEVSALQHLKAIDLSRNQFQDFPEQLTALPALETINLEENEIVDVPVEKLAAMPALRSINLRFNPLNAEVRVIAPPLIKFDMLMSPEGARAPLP
# UniProt Q8N335: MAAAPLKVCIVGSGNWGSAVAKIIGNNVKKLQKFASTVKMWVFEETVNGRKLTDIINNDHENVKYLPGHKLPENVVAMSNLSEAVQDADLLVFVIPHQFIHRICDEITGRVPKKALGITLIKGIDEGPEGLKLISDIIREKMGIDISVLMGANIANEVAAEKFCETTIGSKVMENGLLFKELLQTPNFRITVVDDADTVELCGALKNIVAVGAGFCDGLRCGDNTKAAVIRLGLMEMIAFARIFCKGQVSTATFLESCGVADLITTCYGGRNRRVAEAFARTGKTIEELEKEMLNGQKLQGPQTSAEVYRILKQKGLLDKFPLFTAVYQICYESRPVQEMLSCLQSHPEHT
# UniProt Q8TC12: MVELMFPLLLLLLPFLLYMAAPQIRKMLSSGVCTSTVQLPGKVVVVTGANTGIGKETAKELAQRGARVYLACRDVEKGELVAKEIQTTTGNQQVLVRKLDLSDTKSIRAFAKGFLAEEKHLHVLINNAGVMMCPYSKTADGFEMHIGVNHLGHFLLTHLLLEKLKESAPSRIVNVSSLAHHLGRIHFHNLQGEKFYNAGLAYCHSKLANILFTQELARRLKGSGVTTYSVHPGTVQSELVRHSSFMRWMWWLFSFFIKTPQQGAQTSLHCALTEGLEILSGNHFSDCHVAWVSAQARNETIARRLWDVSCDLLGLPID
# UniProt Q8N4J0: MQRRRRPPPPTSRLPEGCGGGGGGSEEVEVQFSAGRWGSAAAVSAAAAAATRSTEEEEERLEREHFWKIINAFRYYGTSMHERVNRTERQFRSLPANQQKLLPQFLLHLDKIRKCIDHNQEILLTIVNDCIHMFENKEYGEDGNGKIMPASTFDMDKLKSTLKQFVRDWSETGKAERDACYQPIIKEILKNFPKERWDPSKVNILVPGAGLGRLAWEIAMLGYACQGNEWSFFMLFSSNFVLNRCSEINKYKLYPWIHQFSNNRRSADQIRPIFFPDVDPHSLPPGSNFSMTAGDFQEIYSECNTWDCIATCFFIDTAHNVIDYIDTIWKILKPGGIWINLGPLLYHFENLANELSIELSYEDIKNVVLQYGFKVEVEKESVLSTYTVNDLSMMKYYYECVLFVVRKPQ
# UniProt Q8N302: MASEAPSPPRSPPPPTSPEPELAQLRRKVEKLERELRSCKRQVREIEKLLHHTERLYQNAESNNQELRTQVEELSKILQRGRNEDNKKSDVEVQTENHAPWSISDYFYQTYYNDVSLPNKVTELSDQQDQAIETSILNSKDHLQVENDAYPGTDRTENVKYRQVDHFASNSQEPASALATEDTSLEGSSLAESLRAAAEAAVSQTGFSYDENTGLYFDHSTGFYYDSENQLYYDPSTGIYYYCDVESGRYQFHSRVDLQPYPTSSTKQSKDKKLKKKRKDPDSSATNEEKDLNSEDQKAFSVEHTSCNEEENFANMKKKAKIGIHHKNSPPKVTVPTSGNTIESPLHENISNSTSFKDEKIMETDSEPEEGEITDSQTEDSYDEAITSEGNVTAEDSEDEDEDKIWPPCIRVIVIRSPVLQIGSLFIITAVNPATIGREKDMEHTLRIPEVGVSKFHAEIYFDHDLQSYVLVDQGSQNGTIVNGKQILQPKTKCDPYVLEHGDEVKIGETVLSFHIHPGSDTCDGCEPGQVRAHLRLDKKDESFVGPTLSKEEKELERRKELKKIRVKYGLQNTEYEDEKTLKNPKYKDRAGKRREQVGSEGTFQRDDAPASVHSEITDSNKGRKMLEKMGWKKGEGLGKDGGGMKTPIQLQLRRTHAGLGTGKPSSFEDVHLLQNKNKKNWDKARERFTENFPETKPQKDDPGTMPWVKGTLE
# ± gives the standard deviation of the averaged measurements. The list shows a part of the results.
# Compound: Nc1nc2c(ncn2[C@@H]2O[C@H](COP(=O)(O)OP(=O)(O)OP(=O)(O)O)[C@@H](O)[C@H]2O)c(=O)[nH]1 [guanosine triphosphate]
# Assay: NP40-soluble protein abundance relative to vehicle (solubility fold change) (ratio); higher = more soluble protein in presence of GTP
# Experimental: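 Solubility proteome profiling in Jurkat crude lysate. Lysate was treated with Mg-GTP (0.1-10 mM) for 10 min at room temperature and 3 min at 37 °C, then solubilised with 0.8% NP40 and benzonase, followed by ultracentrifugation. Proteins were quantified by TMT10 LC-MS/MS; the value is the NP40-soluble abundance relative to the NP40-processed vehicle, from 3 independent experiments.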
Target,NP40-soluble protein abundance (concentration: 0.1mM),NP40-soluble protein abundance (concentration: 0.5mM),NP40-soluble protein abundance (concentration: 1mM),NP40-soluble protein abundance (concentration: 2mM),NP40-soluble protein abundance (concentration: 4mM),NP40-soluble protein abundance (concentration: 6mM),NP40-soluble protein abundance (concentration: 8mM),NP40-soluble protein abundance (concentration: 10mM)
UniProt Q8TCA0 and related entries,1.05 ± 0.014,0.943 ± 0.062,0.948 ± 0.061,0.98 ± 0.053,0.909 ± 0.059,0.893 ± 0.057,0.851 ± 0.11,0.881 ± 0.077
GPD1L (UniProt Q8N335),0.994 ± 0.03,0.975 ± 0.012,0.92 ± 0.029,0.942 ± 0.035,0.91 ± 0.017,0.904 ± 0.027,0.892 ± 0.05,0.898 ± 0.055
RDH11 (UniProt Q8TC12),1 ± 0.014,0.985 ± 0.024,0.911 ± 0.034,0.895 ± 0.051,0.867 ± 0.048,0.88 ± 0.015,0.824 ± 0.084,0.782 ± 0.082
UniProt Q8N4J0,1.06 ± 0.047,1.05 ± 0.089,0.9094 ± 0.0032,0.911 ± 0.079,0.879 ± 0.092,0.877 ± 0.068,0.875 ± 0.061,0.805 ± 0.1
AGGF1 (UniProt Q8N302),1.03 ± 0.11,1.03 ± 0.079,1.05 ± 0.089,1.08 ± 0.12,1.06 ± 0.046,1.05 ± 0.049,1.05 ± 0.042,1.08 ± 0.068
